Measured values published in patent US7094555B2, “Methods of MHC class II epitope mapping, detection of autoimmune T cells and antigens, and autoimmune treatment” (priority 2001, dated 2006).
Part of at least one peptide drawing is inferred or uncertain, most often the ends.

System: DR0401 restricted T cell clones
Experiment: Stimulation of tetramer-sorted T cell clones by truncated peptides
Type: cell-based, human
Conditions: clones specific for the p10 or p61 epitope

## CC(C)C[C@H](NC(=O)[C@H](C)N)C(=O)N[C@@H](Cc1ccccc1)C(=O)N[C@@H](CC(N)=O)C(=O)N[C@@H](CCCNC(=N)N)C(=O)N[C@@H](CC(C)C)C(=O)N[C@@H](CC(C)C)C(=O)N[C@@H](CC(=O)O)C(=O)N[C@@H](CC(=O)O)C(=O)N[C@@H](CC(C)C)C(=O)NCC(=O)N[C@@H](Cc1ccccc1)C(=O)O [VP16 58–69]
  stimulation of DR0401 restricted T cell clones: could indeed stimulate
